Patent US20190167761A1, “PHARMACEUTICAL COMPOSITION FOR PREVENTING OR TREATING STRESS-RELATED DISEASE, INCLUDING DISC1 PROTEIN OR GENE ENCODING THE SAME” (POSTECH ACADEMY-INDUSTRY FOUNDATION, priority 2017, published 2019)
For at least one compound, name, drawing or mass did not settle the structure.

Tests used:
Format in all cases: cell-based, mouse
[1] = test system: ER-mitochondria Ca^2+ transfer; experiment: IP3-induced mitochondrial Ca2+ imaging (Mito-GCaMP6) in permeabilized cerebral cortical neurons; conditions: DISC1-overexpressing neurons with RiBFM, rapamycin treatment
Method: Neurons (DIV7-8) transfected with Mito-GCaMP6 along with each construct were permeabilized with digitonin and Ca^2+-free ionomycin at 37° C. for 2 minutes in a modified EGTA- and Ca^2+-free buffer, and then was exposed to IP3. To measure the effect of RiBFM on mitochondrial Ca^2+ responses, neurons were transfected with Mito GCaMP6, AKAP1-FKBP12, and FRB-SAC1 together with pFlag-cmv2 or Flag-DISC1 on DIV5-6, and neurons pre-incubated with rapamycin for 5 minutes were exposed to IP3 in the same manner as described above.
By considering the functional association between IP3R1 and DISC1 at the MAM, which was verified in the above example, the inventors of the present disclosure examined whether or not DISC1 was involved in regulating ER-mitochondria Ca^2+ transfer. For this, expression constructs for GCaMP6, which is a genetically encoded Ca^2+ indicator, were modified by combining the target sequences for mitochondria or the ER. Subsequently, it was confirmed that the organelle-specific GCaMP6 constructs were expressed in cerebral cortical neurons. In the case of ER Ca^2+ measurement, the results were verified using ER-GCaMP3, which has a relatively low affinity for Ca^2+. […]

[2] = test system: ER-mitochondria Ca^2+ transfer; experiment: Corticosterone-induced mitochondrial Ca2+ levels in cerebral cortical neurons
Method: (§1) To verify the hypothesis, changes in ROS and mitochondrial Ca^2+ levels in cerebral cortical neurons were assessed after treatment with corticosterone (CORT), which is a glucocorticoid stress hormone.

[3] = test system: cerebral cortical neurons; experiment: Corticosterone-induced ROS generation in cerebral cortical neurons
Method: as §1

Question: Which results are given for `CO[C@H]1C[C@@H]2CC[C@@H](C)[C@@](O)(O2)C(=O)C(=O)N2CCCC[C@H]2C(=O)O[C@H]([C@H](C)C[C@@H]2CC[C@@H](O)[C@H](OC)C2)CC(=O)[C@H](C)/C=C(\C)[C@@H](O)[C@@H](OC)C(=O)[C@H](C)C[C@H](C)/C=C/C=C/C=C/1C` [rapamycin]?
Answer: mitochondrial Ca2+ accumulation according to IP3 treatment [1]: increased the mitochondrial Ca^2+ accumulation to a level similar to the control; effect of rapamycin itself on increase in mitochondrial Ca2+ levels [2]: did not affect; corticosterone-induced mitochondrial Ca2+ accumulation ([2]; DISC1-overexpressing neurons, MAM formation enhanced with rapamycin): increased again; effect of rapamycin itself on oxidative stress- and glucocorticoid-induced ROS generation [3]: did not affect
